# Measured values reported in paper PMC10338680.
# Amino acid sequences for entries named in this document (tags omitted).
# UniProt Q91Z31: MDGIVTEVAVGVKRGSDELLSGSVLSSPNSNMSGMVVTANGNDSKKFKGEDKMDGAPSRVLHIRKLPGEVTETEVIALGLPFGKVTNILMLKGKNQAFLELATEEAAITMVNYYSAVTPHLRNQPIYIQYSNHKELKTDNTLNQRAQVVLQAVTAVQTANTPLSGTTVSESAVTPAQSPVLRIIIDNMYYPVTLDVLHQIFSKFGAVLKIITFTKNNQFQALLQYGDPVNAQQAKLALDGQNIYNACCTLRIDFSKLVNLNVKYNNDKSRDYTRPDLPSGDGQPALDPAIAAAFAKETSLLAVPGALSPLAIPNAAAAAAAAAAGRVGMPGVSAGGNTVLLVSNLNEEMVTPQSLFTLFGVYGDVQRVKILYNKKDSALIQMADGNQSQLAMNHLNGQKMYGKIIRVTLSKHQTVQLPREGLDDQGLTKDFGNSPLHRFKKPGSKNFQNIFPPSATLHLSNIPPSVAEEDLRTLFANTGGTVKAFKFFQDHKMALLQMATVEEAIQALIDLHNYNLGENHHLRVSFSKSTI
# UniProt Q6ZWX6: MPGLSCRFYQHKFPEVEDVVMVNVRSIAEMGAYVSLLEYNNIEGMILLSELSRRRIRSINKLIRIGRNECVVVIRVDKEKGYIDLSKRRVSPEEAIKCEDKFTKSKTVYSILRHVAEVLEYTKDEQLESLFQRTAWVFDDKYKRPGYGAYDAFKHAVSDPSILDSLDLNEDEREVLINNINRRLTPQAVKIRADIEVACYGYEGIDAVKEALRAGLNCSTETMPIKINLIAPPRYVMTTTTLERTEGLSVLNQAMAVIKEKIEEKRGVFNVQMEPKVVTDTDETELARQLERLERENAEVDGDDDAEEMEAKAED
# No constants are given. Whether binding was seen depends on the method and setting. In cells and extracts the contact can be indirect. Some entries that bind do so weakly or less than the wild type.
# Target: Polypyrimidine tract-binding protein 2 (Ptbp2) (mouse (endogenous in primary mouse motoneurons)) (UniProt Q91Z31)
# Experiment: co-IP; anti-Ptbp2 on Protein A/G Dynabeads, primary mouse motoneuron lysate (10 mM HEPES pH 7.0, 100 mM KCl, 5 mM MgCl2, 0.5% NP-40), 2 h at 4 °C, immunoblot; IgG control; also with lysate treated with RNase A for 15 min
substance,measurement,value
initiation factor eIF2α (from UniProt Q6ZWX6 1-315),binding,binds
